From paper PMC10851605

By UniProt entry, the sequences of proteins in these tests, tags left out.
UniProt P29350: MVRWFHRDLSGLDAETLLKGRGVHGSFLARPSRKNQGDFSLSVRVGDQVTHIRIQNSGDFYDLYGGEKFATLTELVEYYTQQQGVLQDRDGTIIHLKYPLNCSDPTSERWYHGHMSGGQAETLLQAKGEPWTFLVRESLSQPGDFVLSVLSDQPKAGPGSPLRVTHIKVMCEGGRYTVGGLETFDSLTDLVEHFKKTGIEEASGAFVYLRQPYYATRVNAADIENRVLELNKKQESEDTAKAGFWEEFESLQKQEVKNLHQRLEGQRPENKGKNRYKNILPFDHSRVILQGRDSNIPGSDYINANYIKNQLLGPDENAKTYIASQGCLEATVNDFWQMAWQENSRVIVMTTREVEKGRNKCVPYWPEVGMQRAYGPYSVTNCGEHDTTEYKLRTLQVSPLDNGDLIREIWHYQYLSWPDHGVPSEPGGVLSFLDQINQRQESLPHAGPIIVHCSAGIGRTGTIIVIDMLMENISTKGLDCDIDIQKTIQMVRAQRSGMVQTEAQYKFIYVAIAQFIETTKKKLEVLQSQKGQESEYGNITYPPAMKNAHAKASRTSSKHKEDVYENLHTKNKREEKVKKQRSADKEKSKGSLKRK
UniProt P14618: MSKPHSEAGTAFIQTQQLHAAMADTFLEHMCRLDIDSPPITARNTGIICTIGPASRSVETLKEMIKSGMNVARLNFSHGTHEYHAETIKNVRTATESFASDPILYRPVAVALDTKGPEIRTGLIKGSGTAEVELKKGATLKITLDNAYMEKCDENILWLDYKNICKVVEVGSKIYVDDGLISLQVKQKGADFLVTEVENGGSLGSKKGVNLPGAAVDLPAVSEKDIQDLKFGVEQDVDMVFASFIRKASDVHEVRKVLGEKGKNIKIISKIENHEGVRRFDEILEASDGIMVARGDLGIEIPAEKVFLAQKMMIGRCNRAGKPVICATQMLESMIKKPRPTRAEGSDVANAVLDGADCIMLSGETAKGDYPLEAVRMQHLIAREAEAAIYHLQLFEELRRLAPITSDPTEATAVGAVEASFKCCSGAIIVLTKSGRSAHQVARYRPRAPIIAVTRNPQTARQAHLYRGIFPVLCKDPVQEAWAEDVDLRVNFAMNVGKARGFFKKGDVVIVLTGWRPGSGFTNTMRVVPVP

Target: SHP1 (human (endogenous in Jurkat)) (UniProt P29350)
Assay: affinity purification with mass spectrometry; endogenous SHP1 captured with SHP1 antibody on protein A/G agarose beads from lysate of Jurkat cells treated with P5C; bound proteins identified by LC/MS-MS

binding: binds
Substance: pyruvate kinase M2 (PKM2) (from UniProt P14618 1-531) (enzyme)

These are yes or no findings as the source states them, for the method shown. In cells and extracts the contact can be indirect. These calls come from enrichment with a bait or labelling near it, and not all partners need be listed.
